Test results taken from paper PMC4145083.
No constants are given. Whether binding was seen depends on the method and setting. Binding seen in cells or lysates may run through a third protein. Some results given as binding are weak or reduced against the parent protein; the word gives no strength.

Amino acid sequences for entries named in this document (tags omitted). Residues count along the entry.
UniProt Q9Y6N7, residues 26-1651: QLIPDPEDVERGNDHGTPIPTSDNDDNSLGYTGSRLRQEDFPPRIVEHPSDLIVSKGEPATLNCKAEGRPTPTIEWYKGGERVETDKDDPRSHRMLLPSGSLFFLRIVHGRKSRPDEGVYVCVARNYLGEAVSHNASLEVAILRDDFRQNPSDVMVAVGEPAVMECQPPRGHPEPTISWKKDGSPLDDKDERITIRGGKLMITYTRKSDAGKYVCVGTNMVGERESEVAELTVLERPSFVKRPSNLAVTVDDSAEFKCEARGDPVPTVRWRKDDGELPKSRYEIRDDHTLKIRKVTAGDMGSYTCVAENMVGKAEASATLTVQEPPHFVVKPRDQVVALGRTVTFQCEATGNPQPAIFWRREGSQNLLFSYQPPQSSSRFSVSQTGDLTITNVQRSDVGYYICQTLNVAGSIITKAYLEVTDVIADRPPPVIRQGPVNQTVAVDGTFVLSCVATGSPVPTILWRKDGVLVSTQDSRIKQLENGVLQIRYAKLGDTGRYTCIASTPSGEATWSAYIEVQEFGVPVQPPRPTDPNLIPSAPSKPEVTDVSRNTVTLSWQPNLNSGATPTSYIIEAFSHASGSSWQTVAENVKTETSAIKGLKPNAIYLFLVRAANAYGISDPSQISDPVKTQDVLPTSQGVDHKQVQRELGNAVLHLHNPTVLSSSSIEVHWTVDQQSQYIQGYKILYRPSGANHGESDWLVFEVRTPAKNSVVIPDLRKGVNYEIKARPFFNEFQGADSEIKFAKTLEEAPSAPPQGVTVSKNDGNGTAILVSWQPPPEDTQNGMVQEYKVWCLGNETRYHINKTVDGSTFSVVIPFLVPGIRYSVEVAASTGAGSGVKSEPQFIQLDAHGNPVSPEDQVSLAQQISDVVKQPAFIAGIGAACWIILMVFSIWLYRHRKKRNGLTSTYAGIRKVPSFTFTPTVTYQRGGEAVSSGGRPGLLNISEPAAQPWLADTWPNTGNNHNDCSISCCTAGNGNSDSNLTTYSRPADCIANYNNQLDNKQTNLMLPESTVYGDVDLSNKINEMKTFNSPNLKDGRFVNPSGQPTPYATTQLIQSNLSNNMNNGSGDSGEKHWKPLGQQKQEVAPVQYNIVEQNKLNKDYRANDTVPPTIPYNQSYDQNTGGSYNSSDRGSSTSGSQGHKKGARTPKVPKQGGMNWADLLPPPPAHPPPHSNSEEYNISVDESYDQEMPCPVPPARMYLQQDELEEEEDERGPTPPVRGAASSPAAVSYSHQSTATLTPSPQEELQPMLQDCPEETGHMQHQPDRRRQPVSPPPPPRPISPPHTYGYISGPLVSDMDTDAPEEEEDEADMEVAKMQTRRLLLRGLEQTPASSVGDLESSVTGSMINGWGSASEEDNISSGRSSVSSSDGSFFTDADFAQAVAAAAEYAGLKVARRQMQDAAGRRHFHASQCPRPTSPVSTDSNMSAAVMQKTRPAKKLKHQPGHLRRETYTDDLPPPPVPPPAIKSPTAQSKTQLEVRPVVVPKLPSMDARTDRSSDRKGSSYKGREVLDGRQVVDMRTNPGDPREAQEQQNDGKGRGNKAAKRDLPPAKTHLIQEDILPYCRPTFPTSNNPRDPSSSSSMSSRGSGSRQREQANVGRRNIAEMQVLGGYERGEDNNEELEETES

Biological target: Robo1 (Roundabout 1) (human (endogenous in H1299)) (UniProt Q9Y6N7)
Experiment: co-IP; endogenous proteins; H1299 cell lysates (0.5% NP-40, 50 mmol/L Tris pH 7.5, 150 mmol/L NaCl, 1 mmol/L EDTA) precipitated with anti-Robo1 or control IgG, blotted with anti-USP33; cells in the presence of mock-control or Slit

B1: Ubiquitin specific protease 33 (USP33) (enzyme, UniProt Q8TEY7 1-942)
chain: MTGSNSHITILTLKVLPHFESLGKQEKIPNKMSAFRNHCPHLDSVGEITKEDLIQKSLGTCQDCKVQGPNLWACLENRCSYVGCGESQVDHSTIHSQETKHYLTVNLTTLRVWCYACSKEVFLDRKLGTQPSLPHVRQPHQIQENSVQDFKIPSNTTLKTPLVAVFDDLDIEADEEDELRARGLTGLKNIGNTCYMNAALQALSNCPPLTQFFLDCGGLARTDKKPAICKSYLKLMTELWHKSRPGSVVPTTLFQGIKTVNPTFRGYSQQDAQEFLRCLMDLLHEELKEQVMEVEEDPQTITTEETMEEDKSQSDVDFQSCESCSNSDRAENENGSRCFSEDNNETTMLIQDDENNSEMSKDWQKEKMCNKINKVNSEGEFDKDRDSISETVDLNNQETVKVQIHSRASEYITDVHSNDLSTPQILPSNEGVNPRLSASPPKSGNLWPGLAPPHKKAQSASPKRKKQHKKYRSVISDIFDGTIISSVQCLTCDRVSVTLETFQDLSLPIPGKEDLAKLHSSSHPTSIVKAGSCGEAYAPQGWIAFFMEYVKRFVVSCVPSWFWGPVVTLQDCLAAFFARDELKGDNMYSCEKCKKLRNGVKFCKVQNFPEILCIHLKRFRHELMFSTKISTHVSFPLEGLDLQPFLAKDSPAQIVTYDLLSVICHHGTASSGHYIAYCRNNLNNLWYEFDDQSVTEVSESTVQNAEAYVLFYRKSSEEAQKERRRISNLLNIMEPSLLQFYISRQWLNKFKTFAEPGPISNNDFLCIHGGVPPRKAGYIEDLVLMLPQNIWDNLYSRYGGGPAVNHLYICHTCQIEAEKIEKRRKTELEIFIRLNRAFQKEDSPATFYCISMQWFREWESFVKGKDGDPPGPIDNTKIAVTKCGNVMLRQGADSGQISEETWNFLQSIYGGGPEVILRPPVVHVDPDILQAEEKIEVETRSL
  binding: binds
